Results are given in words; binding and its absence hold for the method and conditions named. Binding seen in cells or lysates may run through a third protein. Some entries that bind do so weakly or less than the wild type.
B1: endogenous EXOSC3 (natural protein, mouse (endogenous in Neuro-2a), UniProt Q7TQK4 1-274, looked up)
chain: MAEVLSAGPESVAGCRARAVHKVLNQVVLPGEELVLPDHEDVDGLGGAGEQPLRLNAGARPRLRVVCGPGLRRCGDRLLVTKCGRLRHKEPSGGGGGVYWVDSQQKRYVPVKGDHVIGIVIAKSGDIFKVDVGGSEPASLSYLAFEGATKRNRPNVQVGDLIYGQCVVANKDMEPEMVCIDSCGRANGMGVIGQDGLLFKVTLGLIRKLLAPDCEIVQELGKLYPLEIVFGMNGRIWVKAKTIQQTLILANVLEACEHMTTEQRKQIFARLAES
B2: endogenous EXOSC9 (natural protein, mouse (endogenous in Neuro-2a), UniProt Q9JHI7 1-438, looked up)
chain: MKETPLSNCERRFLLRAIEEKKRLDGRQTYDYRNIRISFGTDYGCCIVELGKTRVLGQVSCELVSPKLNRATEGILFFNLELSQMAAPAFEPGRQSDLLVKLNRLLERCLRNSKCIDTESLCVVAGEKVWQIRVDLHLLNHDGNIIDAASIAAIVALCHFRRPDVSVQGEEVTLYTPEERDPVPLSIHHMPICVSFAFFQQGTYLLVDPNEREERVMDGLLVIAMNKHREICTIQSSGGIMLLKDQVFRCSKIAGVKVAEITELIQKALENDQRVRKEGGKFGFAESIANQRITAFKMETAPIDTSNIEERAEEIIAEAEPPPEVVSQPVLWTPGTAQIGDGIENSWGDLEDSEKEEEEEEGGIDEAVILDDTKMDTGEVSDIGSQGAPIVLSDSEEEEMIILEPEKNPKKIRAQTSANQKAPSKGQGKRKKKKRTAN
B3: endogenous EXOSC10 (natural protein, mouse (endogenous in Neuro-2a), UniProt P56960 1-887, looked up)
chain: MAPPSPREHQSAPATSATKPDAEMVLPGFPDADSFVKFALGSVVAVTKASGGLPQFGDEYDFYRSFPAFQAFCETQGDRLLQCMSRVMQYHGCRSNIKDRSKVTELEDKFDLLVDTNDVILERVGMLLDEASGVNKHQQPVLPAGLQVPKTIVSSWNRKAGEYGKKAKSETFRLLHAKNIVRPQLRFREKIDNSNTPFLPKIFVKPNARKPLPLALSKERRERPQDRPEDLDVPPALADFIHQQRTQQVEQDMFAHPYQYELDHFTPPQSVLQRPKPQLYRAVGETPCHLVSSLDELVELNEKLLGCQEFAVDLEHHSYRSFLGLTCLMQISTRTEDFIVDTLELRSDMYILNESLTDPAIVKVFHGADSDIEWLQKDFGLYVVNMFDTHQAARLLNLARHSLDHLLRLYCGVESNKQYQLADWRIRPLPEEMLSYARDDTHYLLYIYDRMRLELWERGNHQPVQLQVVWQRSRDICLKKFVKPIFTDESYLELYRKQKKHLNSQQLTAFQLLFAWRDKTARREDESYGYVLPNHMMLKIAEELPKEPQGIIACCNPVPPLVRQQINEMHLLIQQAREMPLLKSENAAGVRKSGPLPSAERLENDLFGPHDCSHAPPDNYQNTSTDGTLPLQKQPSLFTEGKEETSVDAGCLLATAVITLFSEPNTEEGGKTPLTVAQKKAQNIMQSFENPFRMFLPSLEHKAHISQAAKFDPSSKIYEISNRWKLASQVQVQKEPKEATKKKVAEQTAAREEAKEEAAAGVLEQAIPVRQQAALENATKKRERATSDLRTIEQKQEKKRLKSSKKAKDPDPPGKDFSPYDYSQSDFRAFAGDSKSKPSSQFDPNKLAPSGKKGVGAKKCKQSVGNKSMSFAVGKSDRGFRHNWPKR

Amino acid sequences for entries named in this document (tags omitted). A change or cut given only in a name is not applied to a line headed by its entry. Chains listed by the source or under a name are the forms on record and can include a tag or linker.
UniProt Q8VBV3: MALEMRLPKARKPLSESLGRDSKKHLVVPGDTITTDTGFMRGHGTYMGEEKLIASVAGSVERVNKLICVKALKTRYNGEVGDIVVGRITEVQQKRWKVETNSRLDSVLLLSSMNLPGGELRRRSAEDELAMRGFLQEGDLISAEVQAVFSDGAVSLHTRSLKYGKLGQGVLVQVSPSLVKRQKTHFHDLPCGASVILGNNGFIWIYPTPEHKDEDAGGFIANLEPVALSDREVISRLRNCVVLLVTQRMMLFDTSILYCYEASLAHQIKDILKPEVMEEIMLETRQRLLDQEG
UniProt Q9CRA8: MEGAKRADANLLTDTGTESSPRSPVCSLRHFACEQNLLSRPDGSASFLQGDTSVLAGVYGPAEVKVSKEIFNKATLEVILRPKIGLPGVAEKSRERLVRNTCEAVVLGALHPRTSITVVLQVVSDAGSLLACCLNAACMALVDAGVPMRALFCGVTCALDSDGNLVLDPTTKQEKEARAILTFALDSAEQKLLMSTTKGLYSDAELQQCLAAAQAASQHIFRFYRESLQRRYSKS
Myc-tagged mouse EXOSC5 p.Met148Thr (Q9CRA8, form named): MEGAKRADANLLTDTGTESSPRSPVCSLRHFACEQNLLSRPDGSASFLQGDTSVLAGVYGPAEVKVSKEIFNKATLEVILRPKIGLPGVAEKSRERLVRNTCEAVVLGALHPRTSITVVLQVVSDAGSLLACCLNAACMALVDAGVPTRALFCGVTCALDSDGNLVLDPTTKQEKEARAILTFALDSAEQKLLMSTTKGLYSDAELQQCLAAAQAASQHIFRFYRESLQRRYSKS

What follows are binders tested against Myc-tagged mouse EXOSC2 p.G198D (mouse) (UniProt Q8VBV3) (assay: co-IP).

binding, binds:
B1
B2
B3

These binders were tested against Myc-tagged wild-type mouse EXOSC5 (mouse) (UniProt Q9CRA8) (assay: co-IP).

binding, binds:
B1
B2
B3

Each binder was assayed against Myc-tagged wild-type mouse EXOSC2 (mouse) (UniProt Q8VBV3) (assay: co-IP).

binding, binds:
B1
B2
B3

What follows are binders tested against Myc-tagged mouse EXOSC5 p.Met148Thr (mouse) (UniProt Q9CRA8) (assay: co-IP).

binding, binds:
B1
B2
B3

— paper doi:10.1101/2020.04.01.839274 (bioRxiv, 2020)
